PubChem BioAssay AID652259 – Drosophila RNAi Screening Center – 2013

Test: 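Knock-downs that push a Wingless-driven reporter up or down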 (primary screen)
Cell system: Drosophila clone 8 imaginal disc epithelial cells
Knock-down reagent: long dsRNA against Drosophila genes
Treatment: pathway stimulated by co-transfected Wingless expression plasmid
Measured: 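Dual luciferase reads per well after Wingless plasmid stimulation: reporter firefly light and Renilla control light; activity is firefly divided by Renilla, a ratio not deposited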
Direction: firefly reporter light: higher = more Wg reporter light, before normalisation; Renilla control light: higher = more transfected or surviving cells
Rule for the call: 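a knock-down is a candidate when at least two out of four statistical tests show it departing from its plate mean; one test alone signals a weak candidate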
Calls: active = candidate regulator (raises or lowers reporter); inactive = not a candidate
The deposit covers about 22,000 reagents; below is an unselected part of those that have a named target and a result. In the full data, 233 (1.1%) were called active. 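Light values are raw, unnormalised plate reads; the ratio scores behind the reporter calls were not deposited.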 No sequences are given here. The record does not give: the amount of reagent, the time to read-out, the dose of the treatment.

CG9106 [DRSC20154] | firefly reporter light, replicate 1 = 2939; firefly reporter light, replicate 2 = 9238; Renilla control light, replicate 1 = 1175; Renilla control light, replicate 2 = 2781; call = inactive
CG6785 [DRSC02993] | firefly reporter light, replicate 1 = 6864; Renilla control light, replicate 1 = 1568; call = inactive
Cdc5 (Cell division cycle 5) [DRSC08577] | firefly reporter light, replicate 1 = 15802; Renilla control light, replicate 1 = 2394; call = inactive
Msh6 [DRSC10759] | firefly reporter light, replicate 1 = 4145; Renilla control light, replicate 1 = 2208; call = inactive
DIP-alpha (Dpr-interacting protein alpha) [DRSC17891] | firefly reporter light, replicate 1 = 2917; Renilla control light, replicate 1 = 1081; call = inactive
DIP-alpha (Dpr-interacting protein alpha) [DRSC17892] | firefly reporter light, replicate 1 = 16181; Renilla control light, replicate 1 = 3898; call = inactive
AIMP3 (aaRS-interacting multifunctional protein 3) [DRSC04500] | firefly reporter light, replicate 1 = 3601; firefly reporter light, replicate 2 = 7607; Renilla control light, replicate 1 = 624; Renilla control light, replicate 2 = 2604; call = inactive
RpL4 (Ribosomal protein L4) [DRSC16833] | firefly reporter light, replicate 1 = 2437; firefly reporter light, replicate 2 = 6810; Renilla control light, replicate 1 = 656; Renilla control light, replicate 2 = 1089; call = inactive
c11.1 [DRSC18749] | firefly reporter light, replicate 1 = 17716; Renilla control light, replicate 1 = 9878; call = inactive
CG12209 [DRSC06119] | firefly reporter light, replicate 1 = 1459; firefly reporter light, replicate 2 = 6106; Renilla control light, replicate 1 = 617; Renilla control light, replicate 2 = 2346; call = inactive

2 neighbouring records from above, quoted:
RpL4 (Ribosomal protein L4) [DRSC16833] | firefly reporter light, replicate 1 = 2437; firefly reporter light, replicate 2 = 6810; Renilla control light, replicate 1 = 656; Renilla control light, replicate 2 = 1089; call = inactive
c11.1 [DRSC18749] | firefly reporter light, replicate 1 = 17716; Renilla control light, replicate 1 = 9878; call = inactive

More results follow:
Obp56c (Odorant-binding protein 56c) [DRSC06552] | firefly reporter light, replicate 1 = 10156; Renilla control light, replicate 1 = 4016; call = inactive
Obp56c (Odorant-binding protein 56c) [DRSC22325] | firefly reporter light, replicate 1 = 3.96e5; firefly reporter light, replicate 2 = 3.93e5; Renilla control light, replicate 1 = 1.68e5; Renilla control light, replicate 2 = 1.56e5; call = inactive
elg1 (enhanced level of genomic instability 1) [DRSC10229] | firefly reporter light, replicate 1 = 3314; Renilla control light, replicate 1 = 1627; call = inactive
CG13110 [DRSC02208] | firefly reporter light, replicate 1 = 1637; firefly reporter light, replicate 2 = 4969; Renilla control light, replicate 1 = 969; Renilla control light, replicate 2 = 2453; call = inactive
CG11164 [DRSC19392] | firefly reporter light, replicate 1 = 25440; Renilla control light, replicate 1 = 14459; call = inactive
CG14834 [DRSC10204] | firefly reporter light, replicate 1 = 1398; firefly reporter light, replicate 2 = 3963; Renilla control light, replicate 1 = 962; Renilla control light, replicate 2 = 2151; call = inactive
Cyp313a4 (Cytochrome P450 313a4) [DRSC16627] | firefly reporter light, replicate 1 = 12240; Renilla control light, replicate 1 = 2801; call = inactive
